In patent US20260248920A1, “COMPOSITION FOR PREVENTING OR TREATING INFLAMMATORY DISEASES, CONTAINING POLY(ORGANOPHOSPHAZENE) POLYMER” (KOREA INSTITUTE OF SCIENCE AND TECHNOLOGY, priority 2022, published 2026):
At least one structure is not confirmed: it was looked up by name or label, or the drawing left a doubt.

Legend:
[1] = test system: rat model with monosodium iodoacetate (MIA)-induced OA; assay: In vivo anti-OA effect of single IA injection (knee dissection, X-ray, μ-CT, histology); set-up: species or system Sprague Dawley (SD) rats; conditions: 8 weeks after single IA injection
[2] = test system: pro-inflammatory cytokines MMP-3, MMP-13, IL-6, TNF-α; set-up: species or system Sprague Dawley (SD) rats; conditions: rat, in vivo

In the case of CC1(C)O[C@@H]2C[C@H]3[C@@H]4CCC5=CC(=O)C=C[C@]5(C)[C@@]4(F)[C@@H](O)C[C@]3(C)[C@]2(C(=O)CO)O1 [TCA, triamcinolone acetonide], the “histology (H&E, safranin O)” value [1] is reported as “little effect on the progression of OA”, the “interarticular cartilage (DIC) distance” value ([1]; versus saline group) is reported as “similarly increased” and the “gene expression levels of pro-inflammatory cytokines over time” value [2] is reported as “continued to increase”.
